Assay results reported in publication PMC4510537.
Results are given in words; binding and its absence hold for the method and conditions named. Binding seen in cells or lysates may run through a third protein. Some binding calls cover weakened binding; strength is not graded here.

Protein sequences, listed by entry. Tags and fused reporters are not part of them. Lines headed by an entry give the natural chain unless they say otherwise; changes in a name come on top. Residues count along the entry.
UniProt Q04900: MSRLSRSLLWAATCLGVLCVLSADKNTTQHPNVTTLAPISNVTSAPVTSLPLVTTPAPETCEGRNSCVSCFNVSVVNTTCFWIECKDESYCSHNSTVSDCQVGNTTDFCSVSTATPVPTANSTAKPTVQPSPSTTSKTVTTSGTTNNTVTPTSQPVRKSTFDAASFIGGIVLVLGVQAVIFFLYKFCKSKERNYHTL
HA4-CD164 R192*: residues 24-191 of Q04900

Target: HA4-CD164 R192* (human) (UniProt Q04900)
Test: co-IP; HEK-293 cells co-transfected with distinctly tagged CD164 and CD164 R192*, lysed 2 days later in immunoprecipitation buffer; precipitated with anti-HA (12CA5) and protein G agarose; reducing SDS-PAGE, immunoblot with anti-FLAG (M2) or anti-HA

FLAG4-CD164 (from UniProt Q04900 24-197)
binding: binds
